Paper doi:10.1101/755504 (bioRxiv, 2019)
Results are given in words; binding and its absence hold for the method and conditions named. In cells and extracts the contact can be indirect. Some results given as binding are weak or reduced against the parent protein; the word gives no strength. Sequences can lack the tags named with a protein.

Molecular target: T1, YFP-D6PK (D6 PROTEIN KINASE) (Arabidopsis thaliana) (UniProt Q9FG74)
T1 sequence: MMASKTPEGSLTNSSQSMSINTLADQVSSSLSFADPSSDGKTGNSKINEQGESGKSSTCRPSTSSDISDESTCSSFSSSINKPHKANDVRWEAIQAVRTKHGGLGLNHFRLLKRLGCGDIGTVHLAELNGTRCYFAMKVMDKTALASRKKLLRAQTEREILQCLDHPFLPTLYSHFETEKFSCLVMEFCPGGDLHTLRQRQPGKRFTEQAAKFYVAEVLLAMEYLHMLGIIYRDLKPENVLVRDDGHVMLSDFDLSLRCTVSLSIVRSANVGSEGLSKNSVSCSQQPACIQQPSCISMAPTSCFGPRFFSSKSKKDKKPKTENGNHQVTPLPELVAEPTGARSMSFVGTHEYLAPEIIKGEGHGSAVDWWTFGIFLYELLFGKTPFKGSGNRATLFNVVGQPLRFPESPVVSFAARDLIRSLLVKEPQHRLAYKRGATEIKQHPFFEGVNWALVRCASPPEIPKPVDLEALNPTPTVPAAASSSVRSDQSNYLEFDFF
Assay: co-IP

binding: binds
B1: GST-PDK1.1 (enzyme, Arabidopsis thaliana, UniProt Q9XF67 1-491, looked up)
chain: MLAMEKEFDSKLVLQGNSSNGANVSRSKSFSFKAPQENFTSHDFEFGKIYGVGSYSKVVRAKKKETGTVYALKIMDKKFITKENKTAYVKLERIVLDQLEHPGIIKLYFTFQDTSSLYMALESCEGGELFDQITRKGRLSEDEARFYTAEVVDALEYIHSMGLIHRDIKPENLLLTSDGHIKIADFGSVKPMQDSQITVLPNAASDDKACTFVGTAAYVPPEVLNSSPATFGNDLWALGCTLYQMLSGTSPFKDASEWLIFQRIIARDIKFPNHFSEAARDLIDRLLDTEPSRRPGAGSEGYVALKRHPFFNGVDWKNLRSQTPPKLAPDPASQTASPERDDTHGSPWNLTHIGDSLATQNEGHSAPPTSSESSGSITRLASIDSFDSRWQQFLEPGESVLMISAVKKLQKITSKKVQLILTNKPKLIYVDPSKLVVKGNIIWSDNSNDLNVVVTSPSHFKICTPKKVLSFEDAKQRASVWKKAIETLQNR
